Record: PubChem BioAssay AID686943 (Drosophila RNAi Screening Center, 2013)

Purpose: 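Knockdowns that increase or decrease active ERK after insulin receptor stimulation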 (primary screen)
System: Drosophila S2R+ haemocyte-like cells expressing YFP-tagged ERK (Rolled)
Reagents: long dsRNA against Drosophila genes
Challenge: insulin stimulation versus unstimulated cells; dose and duration not given
Measurement: 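Antibody staining for doubly phosphorylated ERK divided by ERK-YFP signal, as plate z-scores, in insulin-treated and untreated cells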
Direction: replicate 1, z-score of dpERK with insulin and replicate 2, z-score of dpERK with insulin: higher = more active ERK per ERK-YFP after insulin; replicate 1, z-score of dpERK under basal conditions: higher = more basal active ERK per ERK-YFP; replicate 1, z-score of ERK-YFP with insulin: higher = more YFP-tagged ERK signal
The deposit covers about 23,000 reagents; this is an unselected part of those with a known target gene and a result. 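Extra replicates exist only for a retested subset of genes; insulin dose and duration not given; both raised and lowered dpERK matter.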 Reagents against one gene are numbered here. A plus sign joins genes that one reagent is predicted to hit. The record does not give: the amount of reagent, the time to read-out.

no.	target	reagent	replicate 1, z-score of dpERK with insulin	replicate 2, z-score of dpERK with insulin	replicate 1, z-score of dpERK under basal conditions	replicate 1, z-score of ERK-YFP with insulin
1	DIP-iota (Dpr-interacting protein iota)	1	-0.6	-0.12	0.89	0.42
2	CG32262	1	0.63	0.83	-0.29	0.49
3	CAH2 (Carbonic anhydrase 2)	1	0.62	0.54	-0.07	0.35
4	CG7251	1	-0.75	-0.59	0.14	0.19
5	Obp83ef (Odorant-binding protein 83ef)	1	0.17	-0.48	0.9	0.08
6	CG31544 (retired record)	1	0.21	1.66	1.1	-0.2
7	CG34408	1	0.8	0.52	0.53	0.18
8	CG34408	2	-0.99	-1.13	-1.14	0.33
9	Sec6 (Secretory 6)	1	-0.66	-0.3	-0.11	0.28
10	alphaTub84B (alpha-Tubulin at 84B)	1	-0.79	-1.79	3.07	-1.74
11	Tpc1	1	-2.6	-2.58	-0.61	-0.47
12	Tpc1	2	-0.01	-0.1	-0.07	0.62
13	CG34348	1	-0.81	-0.05	-1.61	-0.18
14	CG34348	2	0.03	-0.13	-0.03	0.29
15	Epac (Exchange protein directly activated by cAMP)	1	-0.7	-0.32	1.12	0.36
16	Epac (Exchange protein directly activated by cAMP)	2	0.33	0.34	-0.93	-0.94
17	Epac (Exchange protein directly activated by cAMP)	3	0.88	2.3	-0.87	-0.11
18	Mink (Mitotic spindle and nuclear protein)	1	0.22	0.78	0.44	-0.35
19	Sbds (SBDS ribosome maturation factor)	1	0.04	0.07	-0.2	0.84
20	lncRNA:CR32690 (long non-coding RNA:CR32690)	1	-0.27	0.44	0.87	2.21
21	CG15818	1	0.12	-0.42	-0.76	0.69
22	CG30109 + CG30108	1	0.17	0	-0.17	-0.21
23	CG17187	1	0.3	0.18	0.76	-0.43

A run of entries taken from the entries so far:
no.	target	reagent	replicate 1, z-score of dpERK with insulin	replicate 2, z-score of dpERK with insulin	replicate 1, z-score of dpERK under basal conditions	replicate 1, z-score of ERK-YFP with insulin
16	Epac (Exchange protein directly activated by cAMP)	2	0.33	0.34	-0.93	-0.94
17	Epac (Exchange protein directly activated by cAMP)	3	0.88	2.3	-0.87	-0.11
18	Mink (Mitotic spindle and nuclear protein)	1	0.22	0.78	0.44	-0.35
19	Sbds (SBDS ribosome maturation factor)	1	0.04	0.07	-0.2	0.84
